Test system: THP-1-HMGB1-Lucia cells
Assay: TBZ-induced necroptosis screening by HMGB1-luciferase release
Assay type: cell-based
Settings: Homo sapiens; 20 μM compound with TBZ, 8 h; TBZ alone = 100, DPBS = 0; read-out: % Inhibition (luciferase activity relative to TBZ-treated supernatant)
Description: To identify potential inhibitors of the necroptosis pathway targeting MLKL or the process of p-MLKL pore formation on the membrane, we screened a library of 2150 compounds, including FDA-approved drugs and those in phase 1–3 clinical trials, using THP-1-HMGB1-Lucia™ cells expressing the HMGB1-luciferase fusion protein. The cells were treated with a necroptosis-inducing mixture containing TNF-α, BV6, and Z-VAD-FMK (TBZ) in addition to the compound library (Fig. 1A). The supernatants were harvested to measure luciferase activities for necroptosis. The luciferase activities of cell supernatants treated with TBZ alone were considered as the maximum release (100%) of HMGB1-luciferase. NEC-1, a known RIP1 inhibitor used in both humans and mice, was used as a positive control. […] Next, we performed a propidium iodide (PI) uptake assay to exclude cytotoxic compounds using THP-1 cells. […]
THP-1-HMGB1-Lucia^TM cells were pretreated with the pan-caspase inhibitor Z-VAD-FMK (50 μM, tlrl-vad, InvivoGen) and each chemical for 1 h, and followed by TNF-α (100 ng/mL, TNF0501, NKMAXBio, Seongnam, S. Korea) and Smac mimetic BV6 (10 μM, B1332-5, Biovision, Santa Clara, CA, USA), termed TBZ mixture, were added for necroptosis screening. […] The inhibition of necroptosis (%) was calculated as: (sample-treated data – medium-only data) × 100/(TBZ-treated data – medium-only data). […]

Row | SMILES | activity at 20 µM
1 | Clc1ccc(CO/N=C(\Cn2ccnc2)c2ccc(Cl)cc2Cl)c(Cl)c1 [S67, Oxiconazole nitrate] | 7.1%
2 | Clc1ccc(CSC(Cn2ccnc2)c2ccc(Cl)cc2Cl)cc1 (centres unmarked) [S53, Exelderm] | 8.7%
